Measurements taken from publication PMC11701132, “Tau is a receptor with low affinity for glucocorticoids and is required for glucocorticoid-induced bone loss” (Cell Research, 2025).

The chains behind the UniProt entries cited, without tags or fusion partners. Where a name states a change or a piece, a line headed by the entry shows the natural chain unless it says otherwise.
UniProt P10637: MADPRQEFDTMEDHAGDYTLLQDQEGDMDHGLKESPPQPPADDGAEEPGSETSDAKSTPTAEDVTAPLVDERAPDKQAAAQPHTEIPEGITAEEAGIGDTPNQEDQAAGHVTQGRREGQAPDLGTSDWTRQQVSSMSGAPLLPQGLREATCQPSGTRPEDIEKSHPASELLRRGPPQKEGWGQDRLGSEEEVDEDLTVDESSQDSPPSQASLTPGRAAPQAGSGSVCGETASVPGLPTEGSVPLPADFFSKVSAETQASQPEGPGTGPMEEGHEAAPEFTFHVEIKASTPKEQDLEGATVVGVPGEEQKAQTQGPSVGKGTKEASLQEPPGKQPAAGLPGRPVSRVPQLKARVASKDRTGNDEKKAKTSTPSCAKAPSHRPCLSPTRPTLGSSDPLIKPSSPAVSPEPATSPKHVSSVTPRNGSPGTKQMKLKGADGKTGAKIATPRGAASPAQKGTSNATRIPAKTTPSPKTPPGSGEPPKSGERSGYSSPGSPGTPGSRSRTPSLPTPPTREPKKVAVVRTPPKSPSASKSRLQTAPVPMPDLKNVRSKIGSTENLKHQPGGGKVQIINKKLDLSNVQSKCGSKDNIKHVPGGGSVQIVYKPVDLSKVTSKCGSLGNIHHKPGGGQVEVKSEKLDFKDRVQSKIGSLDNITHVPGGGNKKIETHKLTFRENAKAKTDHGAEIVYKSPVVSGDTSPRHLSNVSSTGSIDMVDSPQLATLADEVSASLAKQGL
UniProt Q6PCN3: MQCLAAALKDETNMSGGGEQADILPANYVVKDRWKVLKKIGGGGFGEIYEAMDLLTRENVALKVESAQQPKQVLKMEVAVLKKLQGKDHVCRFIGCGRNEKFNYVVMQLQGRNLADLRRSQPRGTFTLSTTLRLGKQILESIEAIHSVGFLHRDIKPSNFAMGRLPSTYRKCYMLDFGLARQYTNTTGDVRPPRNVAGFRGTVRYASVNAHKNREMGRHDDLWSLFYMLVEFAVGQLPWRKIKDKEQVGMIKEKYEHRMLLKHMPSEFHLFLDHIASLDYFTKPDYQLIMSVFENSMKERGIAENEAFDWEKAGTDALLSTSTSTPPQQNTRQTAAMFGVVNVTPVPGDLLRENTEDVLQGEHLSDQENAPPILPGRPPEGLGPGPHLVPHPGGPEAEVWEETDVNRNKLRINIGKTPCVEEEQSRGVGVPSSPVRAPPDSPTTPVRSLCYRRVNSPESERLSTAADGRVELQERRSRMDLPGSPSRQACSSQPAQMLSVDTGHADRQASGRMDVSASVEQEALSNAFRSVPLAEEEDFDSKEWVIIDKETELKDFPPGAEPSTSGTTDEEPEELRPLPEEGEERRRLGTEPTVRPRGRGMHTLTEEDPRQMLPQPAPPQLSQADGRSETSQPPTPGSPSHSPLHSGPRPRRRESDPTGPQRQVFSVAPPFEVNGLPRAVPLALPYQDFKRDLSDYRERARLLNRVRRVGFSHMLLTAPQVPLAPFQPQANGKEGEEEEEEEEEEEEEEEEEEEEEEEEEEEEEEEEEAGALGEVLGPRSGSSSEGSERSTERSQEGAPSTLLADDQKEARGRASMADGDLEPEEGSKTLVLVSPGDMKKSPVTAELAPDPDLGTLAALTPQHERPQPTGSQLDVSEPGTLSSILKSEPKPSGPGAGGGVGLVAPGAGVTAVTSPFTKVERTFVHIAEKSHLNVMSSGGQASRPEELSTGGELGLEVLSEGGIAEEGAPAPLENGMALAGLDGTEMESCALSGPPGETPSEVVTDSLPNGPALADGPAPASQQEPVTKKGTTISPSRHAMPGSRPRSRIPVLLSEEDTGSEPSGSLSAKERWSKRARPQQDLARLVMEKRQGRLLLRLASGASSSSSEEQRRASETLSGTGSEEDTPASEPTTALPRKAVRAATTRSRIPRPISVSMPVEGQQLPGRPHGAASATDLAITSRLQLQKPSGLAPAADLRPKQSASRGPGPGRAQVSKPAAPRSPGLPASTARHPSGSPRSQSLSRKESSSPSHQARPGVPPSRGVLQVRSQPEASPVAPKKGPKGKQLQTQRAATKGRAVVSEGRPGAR

Target: Tau (mouse (endogenous in Raw264.7)) (UniProt P10637)
Experiment: co-IP; endogenous proteins; Raw264.7 cells treated with 10 µM dexamethasone for 30 min, lysed in PBS pH 7.4 with 1.5% Triton X-100; anti-Tau antibody (or mouse IgG) on protein A/G agarose (for TTBK1) or crosslinked to magnetic beads (for p105/p50), overnight at 4 °C; immunoblot

binding: binds
Substance: TTBK1 kinase (from UniProt Q6PCN3 1-1308) (enzyme)

These are yes or no findings as the source states them, for the method shown. Binding seen in cells or lysates may run through a third protein. Binding calls can cover weak binding; strength is not graded here.
